# Test results reported in US20260174678A1, “OLIGOSACCHARIDES FOR GLYCEMIC CONTROL” (priority 2022, published 2026).
# At least one structure is not confirmed: it was looked up by name or label, or the drawing left a doubt.
# Tested on: alpha glucosidase
# Experiment: Alpha-glucosidase maltose hydrolysis time course (glucose and maltose by UHPLC/QqQ)
# Assay type: biochemical
# Conditions: 100 mg/ml CLX115 or 200 μM acarbose; 20 μM maltose; alpha glucosidase 2 U/ml; 37° C.; 0-60 min
smiles,measurement,value
"C[C@H]1O[C@H](O[C@H]2[C@H](O)[C@@H](O)[C@@H](O[C@H]3[C@H](O)[C@@H](O)C(O)O[C@@H]3CO)O[C@@H]2CO)[C@H](O)[C@@H](O)[C@@H]1N[C@H]1C=C(CO)[C@@H](O)[C@H](O)[C@H]1O (stereo partly drawn) [acarbose, O-4,6-dideoxy-4-[[(1S,4R,5S,6S)-4,5,6-trihydroxy-3-(hydroxymethyl)-2-cyclohexen-1-yl]amino]-α-d-glucopyranosyl-(1→4)-O-α-d-glucopyranosyl(1→4)-d-glucose]",breakdown of maltose,inhibited the breakdown of maltose
same,release of glucose,suppressed the release of glucose
